Results as given in paper doi:10.1101/2022.03.31.486303 (bioRxiv, 2022).
These are yes or no findings as the source states them, for the method shown. In cells and extracts the contact can be indirect. Some results given as binding are weak or reduced against the parent protein; the word gives no strength.

Chains of the proteins cited; added tags and fusions are not shown.
UniProt P00546: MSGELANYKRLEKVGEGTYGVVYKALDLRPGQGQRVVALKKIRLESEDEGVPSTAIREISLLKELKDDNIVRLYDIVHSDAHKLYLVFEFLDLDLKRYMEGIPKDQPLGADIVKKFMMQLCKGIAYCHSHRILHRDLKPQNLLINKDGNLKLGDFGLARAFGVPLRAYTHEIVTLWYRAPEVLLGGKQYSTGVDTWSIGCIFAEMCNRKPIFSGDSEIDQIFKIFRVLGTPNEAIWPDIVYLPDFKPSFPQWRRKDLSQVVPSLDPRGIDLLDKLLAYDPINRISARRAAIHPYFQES

T1: 1xStrep-Clb2 (budding yeast) (UniProt P24869)
T1 sequence: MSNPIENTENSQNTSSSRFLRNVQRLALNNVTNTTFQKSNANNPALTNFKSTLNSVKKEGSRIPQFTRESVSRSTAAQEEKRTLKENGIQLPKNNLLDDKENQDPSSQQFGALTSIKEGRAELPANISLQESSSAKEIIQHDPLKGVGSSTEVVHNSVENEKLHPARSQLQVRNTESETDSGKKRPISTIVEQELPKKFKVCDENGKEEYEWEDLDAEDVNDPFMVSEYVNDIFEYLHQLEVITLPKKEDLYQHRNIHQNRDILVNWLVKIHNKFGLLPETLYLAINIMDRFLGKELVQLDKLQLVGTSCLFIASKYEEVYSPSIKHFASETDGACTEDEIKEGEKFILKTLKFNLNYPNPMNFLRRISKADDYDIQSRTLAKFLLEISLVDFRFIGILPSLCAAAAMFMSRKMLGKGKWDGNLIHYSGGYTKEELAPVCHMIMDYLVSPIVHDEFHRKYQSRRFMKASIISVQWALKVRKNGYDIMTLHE


Target: T1, 1xStrep-Clb2 (budding yeast)
Assay: pull-down

binding | Molecule
binds | Cdc28 (from UniProt P00546 1-298) (enzyme)
binds | Cks1 (protein, UniProt P20486 1-150) MYHHYHAFQGRKLTDQERARVLEFQDSIHYSPRYSDDNYEYRHVMLPKAMLKVIPSDYFNSEVGTLRILTEDEWRGLGITQSLGWEHYECHAPEPHILLFKRPLNYEAELRAATAAAQQQQQQQQQQQQQQQQHQTQSISNDMQVPPQIS
